These are yes or no findings as the source states them, for the method shown. Some entries that bind do so weakly or less than the wild type.
B1: monoclonal mouse antibody IIIF10 (antibody, V domains shown)
VH: QVQLQQSGPELVKPGALVKISCKASGYSFTSYDINWVKRRPGQGLEWIGWIFPGDGSTNYNEKFKDKATLTADKSSSTAYMQLNSLTSENSAVYFCARDGSMGGFDYWGQGTTVTVSS
VL: DVLMTQTPKFMSTSVGDRVSITCKASQNVRTTVAWYQEKPGQSPKALIYLASNRHTGVPDRFTGSGSGTDFTLTISNVQSEDLADYFCLQHWNYPYTFGGGTKLEIKR
B2: scFv IIIF10 (scFv, not shown: large carriers)
scFv: QVQLQQSGPELVKPGALVKISCKASGYSFTSYDINWVKRRPGQGLEWIGWIFPGDGSTNYNEKFKDKATLTADKSSSTAYMQLNSLTSENSAVYFCARDGSMGGFDYWGQGTTVTVSSDVLMTQTPKFMSTSVGDRVSITCKASQNVRTTVAWYQEKPGQSPKALIYLASNRHTGVPDRFTGSGSGTDFTLTISNVQSEDLADYFCLQHWNYPYTFGGGTKLEIKR

Chains of the proteins cited; added tags and fusions are not shown. Residues count along the entry.
UniProt Q03405, residues 23-299: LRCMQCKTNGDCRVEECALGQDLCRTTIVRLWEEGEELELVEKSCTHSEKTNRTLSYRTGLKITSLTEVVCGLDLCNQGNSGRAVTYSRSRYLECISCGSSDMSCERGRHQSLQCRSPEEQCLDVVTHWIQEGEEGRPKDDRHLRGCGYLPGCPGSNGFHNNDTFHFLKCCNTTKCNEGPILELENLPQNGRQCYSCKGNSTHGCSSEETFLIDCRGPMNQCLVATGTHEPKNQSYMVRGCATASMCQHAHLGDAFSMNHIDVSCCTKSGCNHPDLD

Experiments:
[1] = target: recombinant affinity-purified human uPAR (rec-uPAR) expressed in CHO cells (human) (UniProt Q03405); assay: sandwich ELISA, capture HU277, detection IIIF10
[2] = target: uPAR (urokinase receptor) (UniProt Q03405); assay: solid-phase binding assay with scFv culture supernatant; phages selected by specific binding of uPAR

Binder | binding [1] | binding [2]
B1 | binds | –
B2 | – | binds
